Data taken from the supplement of paper PMC11732987, “Enantioselective OTUD7B fragment discovery through chemoproteomics screening and high-throughput optimisation” (Communications Chemistry, 2025).
The list shows a part of the results. The data scatter; read single values as rough.

By UniProt entry, the sequences of proteins in these tests, tags left out. Where a name states a change or a piece, a line headed by the entry shows the natural chain unless it says otherwise. Residues count along the entry.
UniProt Q9HAV4: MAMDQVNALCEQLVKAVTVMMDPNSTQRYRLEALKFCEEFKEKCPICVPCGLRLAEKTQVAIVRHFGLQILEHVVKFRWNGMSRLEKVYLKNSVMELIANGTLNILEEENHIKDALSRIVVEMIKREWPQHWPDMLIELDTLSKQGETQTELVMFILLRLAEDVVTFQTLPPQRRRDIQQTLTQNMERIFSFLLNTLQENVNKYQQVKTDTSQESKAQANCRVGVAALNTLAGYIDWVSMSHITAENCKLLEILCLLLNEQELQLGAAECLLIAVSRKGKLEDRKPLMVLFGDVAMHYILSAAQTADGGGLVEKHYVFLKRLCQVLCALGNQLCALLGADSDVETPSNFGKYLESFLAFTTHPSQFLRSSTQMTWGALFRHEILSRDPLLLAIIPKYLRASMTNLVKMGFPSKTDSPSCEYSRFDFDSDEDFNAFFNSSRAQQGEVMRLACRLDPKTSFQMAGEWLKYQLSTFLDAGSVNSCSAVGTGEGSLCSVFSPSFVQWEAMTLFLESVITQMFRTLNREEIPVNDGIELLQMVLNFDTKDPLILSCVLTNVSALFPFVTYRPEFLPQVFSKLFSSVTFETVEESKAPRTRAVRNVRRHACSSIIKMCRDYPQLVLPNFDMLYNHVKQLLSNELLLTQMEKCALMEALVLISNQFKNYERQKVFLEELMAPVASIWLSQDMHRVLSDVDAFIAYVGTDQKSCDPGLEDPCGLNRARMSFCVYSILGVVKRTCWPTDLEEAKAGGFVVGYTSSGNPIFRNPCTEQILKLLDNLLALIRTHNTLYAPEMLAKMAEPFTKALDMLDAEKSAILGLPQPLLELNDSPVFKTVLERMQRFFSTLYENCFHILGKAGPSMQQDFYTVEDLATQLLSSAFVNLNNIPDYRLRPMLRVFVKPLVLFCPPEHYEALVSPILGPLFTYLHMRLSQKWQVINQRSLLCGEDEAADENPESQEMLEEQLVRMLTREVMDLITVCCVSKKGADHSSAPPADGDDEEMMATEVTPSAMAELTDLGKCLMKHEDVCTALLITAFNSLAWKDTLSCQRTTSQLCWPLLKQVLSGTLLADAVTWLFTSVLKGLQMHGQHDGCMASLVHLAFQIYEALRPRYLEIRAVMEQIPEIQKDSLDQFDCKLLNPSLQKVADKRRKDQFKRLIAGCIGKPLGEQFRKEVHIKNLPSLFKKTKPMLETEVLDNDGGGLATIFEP
UniProt Q96JC1, 218-238: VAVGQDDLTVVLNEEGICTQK
UniProt O43542: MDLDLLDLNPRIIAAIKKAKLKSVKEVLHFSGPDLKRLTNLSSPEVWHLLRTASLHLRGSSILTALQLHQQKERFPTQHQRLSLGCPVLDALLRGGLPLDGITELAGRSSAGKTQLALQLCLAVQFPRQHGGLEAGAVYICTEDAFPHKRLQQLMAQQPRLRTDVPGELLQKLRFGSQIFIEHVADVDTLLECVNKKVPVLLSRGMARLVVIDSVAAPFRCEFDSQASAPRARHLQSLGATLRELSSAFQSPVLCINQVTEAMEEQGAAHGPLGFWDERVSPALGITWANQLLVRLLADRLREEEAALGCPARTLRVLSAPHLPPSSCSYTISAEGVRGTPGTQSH
UniProt Q9H4A3, 531-552: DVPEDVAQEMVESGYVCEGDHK
UniProt O95625: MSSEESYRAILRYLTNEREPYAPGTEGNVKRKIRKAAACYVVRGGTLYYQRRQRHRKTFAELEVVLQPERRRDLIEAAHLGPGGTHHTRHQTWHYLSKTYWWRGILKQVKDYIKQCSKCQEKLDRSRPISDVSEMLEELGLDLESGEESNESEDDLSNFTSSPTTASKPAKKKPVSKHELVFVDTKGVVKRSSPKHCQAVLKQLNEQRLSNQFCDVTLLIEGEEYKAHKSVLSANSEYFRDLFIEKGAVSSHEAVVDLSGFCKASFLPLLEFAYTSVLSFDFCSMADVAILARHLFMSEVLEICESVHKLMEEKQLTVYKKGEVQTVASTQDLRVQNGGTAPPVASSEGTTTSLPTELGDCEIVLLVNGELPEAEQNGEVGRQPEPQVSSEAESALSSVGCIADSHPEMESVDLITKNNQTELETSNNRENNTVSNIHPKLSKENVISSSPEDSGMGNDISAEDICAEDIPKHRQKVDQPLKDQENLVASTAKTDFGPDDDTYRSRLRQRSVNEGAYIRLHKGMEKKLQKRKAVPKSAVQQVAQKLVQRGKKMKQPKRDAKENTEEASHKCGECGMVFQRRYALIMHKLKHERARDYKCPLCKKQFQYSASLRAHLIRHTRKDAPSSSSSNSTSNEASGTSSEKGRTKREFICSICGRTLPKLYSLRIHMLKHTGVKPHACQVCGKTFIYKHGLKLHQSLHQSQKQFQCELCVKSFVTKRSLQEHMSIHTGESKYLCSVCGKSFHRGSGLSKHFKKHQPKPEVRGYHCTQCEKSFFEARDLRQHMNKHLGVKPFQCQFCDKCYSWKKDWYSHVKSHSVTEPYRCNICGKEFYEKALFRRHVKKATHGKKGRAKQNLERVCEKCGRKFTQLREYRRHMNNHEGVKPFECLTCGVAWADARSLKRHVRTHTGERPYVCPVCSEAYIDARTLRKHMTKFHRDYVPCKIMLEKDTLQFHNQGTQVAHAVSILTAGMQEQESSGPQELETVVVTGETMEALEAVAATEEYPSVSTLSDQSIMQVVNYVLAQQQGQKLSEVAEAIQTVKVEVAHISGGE
UniProt O14980, whole entry, looked up: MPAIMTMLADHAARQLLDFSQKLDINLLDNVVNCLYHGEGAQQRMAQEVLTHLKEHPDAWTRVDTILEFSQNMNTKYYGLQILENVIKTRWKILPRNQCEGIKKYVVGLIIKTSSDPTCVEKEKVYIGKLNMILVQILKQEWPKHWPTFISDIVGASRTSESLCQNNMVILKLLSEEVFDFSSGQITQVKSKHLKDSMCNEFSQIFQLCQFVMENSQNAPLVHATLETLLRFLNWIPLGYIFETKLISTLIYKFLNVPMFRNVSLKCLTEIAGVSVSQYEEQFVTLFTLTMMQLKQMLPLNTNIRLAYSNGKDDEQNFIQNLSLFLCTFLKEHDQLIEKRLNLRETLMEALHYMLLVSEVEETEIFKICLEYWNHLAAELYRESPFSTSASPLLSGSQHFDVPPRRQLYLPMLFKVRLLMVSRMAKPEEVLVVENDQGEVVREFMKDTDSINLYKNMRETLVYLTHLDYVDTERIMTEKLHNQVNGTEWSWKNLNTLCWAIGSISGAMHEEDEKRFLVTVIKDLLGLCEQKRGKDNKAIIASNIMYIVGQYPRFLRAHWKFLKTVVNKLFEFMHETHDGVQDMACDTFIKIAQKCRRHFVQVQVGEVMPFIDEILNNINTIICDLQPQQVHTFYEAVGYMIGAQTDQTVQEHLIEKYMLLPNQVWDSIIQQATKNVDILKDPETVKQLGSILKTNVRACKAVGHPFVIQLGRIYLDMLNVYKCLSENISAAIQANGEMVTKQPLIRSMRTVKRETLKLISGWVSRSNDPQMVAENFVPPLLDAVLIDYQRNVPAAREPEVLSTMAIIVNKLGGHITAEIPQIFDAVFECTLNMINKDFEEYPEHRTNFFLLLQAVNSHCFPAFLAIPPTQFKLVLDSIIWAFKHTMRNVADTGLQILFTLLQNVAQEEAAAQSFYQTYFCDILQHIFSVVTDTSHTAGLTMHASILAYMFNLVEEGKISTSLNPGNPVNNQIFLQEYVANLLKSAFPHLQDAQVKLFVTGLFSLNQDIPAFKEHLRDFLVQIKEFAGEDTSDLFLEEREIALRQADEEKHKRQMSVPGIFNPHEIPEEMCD
UniProt O76024, 1-24: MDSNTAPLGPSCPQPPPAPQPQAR
UniProt Q9ULJ3, 361-383: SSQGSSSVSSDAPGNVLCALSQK
UniProt Q5T9L3: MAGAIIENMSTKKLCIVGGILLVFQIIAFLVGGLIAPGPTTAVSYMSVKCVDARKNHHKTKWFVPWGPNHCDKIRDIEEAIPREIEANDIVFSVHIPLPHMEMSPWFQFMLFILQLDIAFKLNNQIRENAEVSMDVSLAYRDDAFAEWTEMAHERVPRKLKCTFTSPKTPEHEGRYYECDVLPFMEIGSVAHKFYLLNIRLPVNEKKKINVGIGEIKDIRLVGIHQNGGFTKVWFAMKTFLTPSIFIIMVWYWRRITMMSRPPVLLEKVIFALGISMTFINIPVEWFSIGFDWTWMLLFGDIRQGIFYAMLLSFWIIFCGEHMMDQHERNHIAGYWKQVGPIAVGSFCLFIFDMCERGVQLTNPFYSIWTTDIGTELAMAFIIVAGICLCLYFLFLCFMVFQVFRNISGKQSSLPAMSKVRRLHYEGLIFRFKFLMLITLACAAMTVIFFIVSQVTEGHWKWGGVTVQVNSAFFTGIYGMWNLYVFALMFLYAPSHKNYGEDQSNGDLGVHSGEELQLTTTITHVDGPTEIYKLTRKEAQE
UniProt Q7Z5K2: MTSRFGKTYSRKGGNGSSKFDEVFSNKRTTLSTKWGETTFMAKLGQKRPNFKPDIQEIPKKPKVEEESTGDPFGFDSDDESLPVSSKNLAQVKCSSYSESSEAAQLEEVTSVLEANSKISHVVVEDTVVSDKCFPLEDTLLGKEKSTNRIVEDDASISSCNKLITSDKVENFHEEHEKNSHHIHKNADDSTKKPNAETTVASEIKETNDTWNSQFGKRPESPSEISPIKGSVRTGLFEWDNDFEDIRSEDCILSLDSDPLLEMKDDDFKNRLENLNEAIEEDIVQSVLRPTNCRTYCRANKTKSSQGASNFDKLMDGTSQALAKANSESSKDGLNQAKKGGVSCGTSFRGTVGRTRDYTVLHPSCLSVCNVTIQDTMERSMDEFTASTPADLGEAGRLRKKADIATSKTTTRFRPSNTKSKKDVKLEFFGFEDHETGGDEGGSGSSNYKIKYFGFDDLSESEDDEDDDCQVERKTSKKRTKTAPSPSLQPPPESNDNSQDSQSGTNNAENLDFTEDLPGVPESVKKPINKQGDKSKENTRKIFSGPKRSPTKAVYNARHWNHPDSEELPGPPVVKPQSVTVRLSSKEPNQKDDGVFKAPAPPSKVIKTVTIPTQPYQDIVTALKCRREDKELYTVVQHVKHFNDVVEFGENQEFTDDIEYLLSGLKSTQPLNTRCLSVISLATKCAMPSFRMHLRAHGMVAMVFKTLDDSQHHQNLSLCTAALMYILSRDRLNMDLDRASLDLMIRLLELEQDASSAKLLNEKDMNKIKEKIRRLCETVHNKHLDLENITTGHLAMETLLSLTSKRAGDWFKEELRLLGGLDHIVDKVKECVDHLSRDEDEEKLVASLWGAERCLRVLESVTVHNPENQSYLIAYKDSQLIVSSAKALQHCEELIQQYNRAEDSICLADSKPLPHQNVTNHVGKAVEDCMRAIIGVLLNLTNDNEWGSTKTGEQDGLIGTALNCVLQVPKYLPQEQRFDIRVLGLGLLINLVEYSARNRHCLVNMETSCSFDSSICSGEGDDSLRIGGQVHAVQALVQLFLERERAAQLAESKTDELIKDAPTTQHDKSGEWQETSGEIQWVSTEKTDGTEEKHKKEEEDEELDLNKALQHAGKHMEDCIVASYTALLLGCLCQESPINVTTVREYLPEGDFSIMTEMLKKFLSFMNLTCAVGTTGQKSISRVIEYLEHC
UniProt Q96C00, 1-21: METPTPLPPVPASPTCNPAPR
UniProt Q96DT7: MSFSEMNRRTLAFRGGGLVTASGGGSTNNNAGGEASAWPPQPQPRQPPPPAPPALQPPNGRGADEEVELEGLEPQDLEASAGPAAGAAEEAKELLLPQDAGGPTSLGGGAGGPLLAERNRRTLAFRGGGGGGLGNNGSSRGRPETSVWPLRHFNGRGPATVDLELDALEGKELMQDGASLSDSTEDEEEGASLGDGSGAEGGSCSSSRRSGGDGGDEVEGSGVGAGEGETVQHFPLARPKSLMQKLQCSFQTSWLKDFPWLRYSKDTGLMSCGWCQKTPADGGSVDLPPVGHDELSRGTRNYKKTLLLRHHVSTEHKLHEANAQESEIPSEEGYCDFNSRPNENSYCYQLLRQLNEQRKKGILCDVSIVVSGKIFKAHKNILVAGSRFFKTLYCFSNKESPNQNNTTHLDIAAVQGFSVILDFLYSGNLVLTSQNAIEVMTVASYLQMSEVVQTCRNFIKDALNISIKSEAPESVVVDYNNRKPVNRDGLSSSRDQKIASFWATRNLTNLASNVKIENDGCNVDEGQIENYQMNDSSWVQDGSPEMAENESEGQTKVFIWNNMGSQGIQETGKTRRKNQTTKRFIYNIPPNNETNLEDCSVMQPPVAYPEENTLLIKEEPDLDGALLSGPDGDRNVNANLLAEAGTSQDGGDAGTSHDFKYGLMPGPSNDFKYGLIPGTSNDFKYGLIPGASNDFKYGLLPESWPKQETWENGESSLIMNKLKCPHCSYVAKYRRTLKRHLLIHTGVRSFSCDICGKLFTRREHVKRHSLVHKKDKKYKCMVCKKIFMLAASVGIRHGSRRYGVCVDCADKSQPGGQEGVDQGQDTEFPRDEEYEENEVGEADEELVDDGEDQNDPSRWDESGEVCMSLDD

Compound: ClCC(=O)N[C@H]1CCCc2ccccc12
Assay: log2 mean competition ratio of IA-DTB cysteine labelling (DMSO/compound) (log2 ratio); higher = stronger cysteine engagement by compound
Settings: 200 µM; treatment time: 4 h; cell line lysate: HEK293T
Description: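 IA-DTB competitive cysteine chemoproteomics in HEK293T RIPA lysate. Lysates were treated with compound 29 or 30 at 50 or 200 µM for 4 h, then IA-DTB (500 µM, 1 h), trypsin-digested, NeutrAvidin-enriched and analysed by diaPASEF. Competition ratio = intensity DMSO / intensity compound (n=4 treated, n=64 DMSO); binding: mean log2 CR ≥ 1 and p ≤ 0.05 plus QC filters. Target is the cysteine site.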

Row | Target | log2 mean competition ratio
1 | VPS53 C365 (UniProt Q5VIR6) | 0.0589
2 | WDR59 C163 (UniProt Q6PJI9) | 0.0442
3 | ZBTB18 C13 (UniProt Q99592) | 0.0081
4 | XPO5 C10 (UniProt Q9HAV4) | -0.196
5 | YTHDF3;YTHDF1 C439;(C412) | -0.035
6 | ZBTB1 C160 (UniProt Q9Y2K1) | 0.0728
7 | WDR77 C26 (UniProt Q9BQA1) | -0.115
8 | VPS39 C844 (UniProt Q96JC1) | -0.197
9 | XPO6 C22 (UniProt Q96QU8) | -0.106
10 | XRCC3 C310 (UniProt O43542) | 0.205
11 | WDSUB1 C410 (UniProt Q8N9V3) | 0.0397
12 | WSCD2 C509 | -0.0402
13 | WDR91 C351 (UniProt A4D1P6) | 0.0409
14 | WNK1 C547 (UniProt Q9H4A3) | -0.13
15 | ZBTB11 C262 (UniProt O95625) | -0.00655
16 | XPO1 C119 (UniProt O14980) | -0.102
17 | XRCC1 C362 | -0.18
18 | WFS1 C12 (UniProt O76024) | -0.00298
19 | ZC3H13 C1046 (UniProt Q5T200) | 0.146

Shown comma-delimited: entries from further up
Row,Target,log2 mean competition ratio
3,ZBTB18 C13 (UniProt Q99592),0.0081
4,XPO5 C10 (UniProt Q9HAV4),-0.196
5,YTHDF3;YTHDF1 C439;(C412),-0.035
7,WDR77 C26 (UniProt Q9BQA1),-0.115
13,WDR91 C351 (UniProt A4D1P6),0.0409
14,WNK1 C547 (UniProt Q9H4A3),-0.13
18,WFS1 C12 (UniProt O76024),-0.00298

Further records:

Row | Target | log2 mean competition ratio
20 | ZBTB21 C911 (UniProt Q9ULJ3) | -0.179
21 | ZC3H7A C149 (UniProt Q8IWR0) | -0.0996
22 | WLS C162 (UniProt Q5T9L3) | 0.219
23 | XRCC1 C615 | -0.111
24 | ZBTB21 C378 (UniProt Q9ULJ3) | 0.234
25 | WNK3 C927 (UniProt Q9BYP7) | 0.0942
26 | WAC C15 (UniProt Q9BTA9) | 0.111
27 | WAPL C685 (UniProt Q7Z5K2) | -0.103
28 | WDR18 C384 (UniProt Q9BV38) | -0.233
29 | VPS39 C235 (UniProt Q96JC1) | 0.136
30 | VPS35 C156 | -0.0556
31 | XRCC1 C389 | 0.211
32 | ZBTB9 C16 (UniProt Q96C00) | -0.0818
33 | WDR3 C625 (UniProt Q9UNX4) | 0.132
34 | WDR41 C340 (UniProt Q9HAD4) | 0.0522
35 | ZBTB10 C394 (UniProt Q96DT7) | -0.127
36 | XPO6 C1114 (UniProt Q96QU8) | -0.171
37 | WRN C771 (UniProt Q14191) | 0.324
